According to patent US11104805B2, “High-saturation scarlet color dye ink for high-speed inkjet process” (KOREA INSTITUE OF INDUSTRIAL TECHNOLOGY, priority 2018, dated 2021):
At least one structure is not confirmed: it was looked up by name or label, or the drawing left a doubt. Some results were stated once for a whole list of compounds, not compound by compound.

Assays:
[1] = Light stability: relative absorbance over time under light irradiation; settings: for relative absorbance after final light irradiation: 1,200 minutes, absorbance before irradiation set to 1; for λmax (nm) (after 1200 min): after 1200 min light irradiation; for λmax (nm): before light irradiation
[2] = UV-Vis absorption spectra of dyes in water; type: physicochemical; settings: 10^−5 M in water
From the text: The UV-Vis absorption spectra of the dyes 1b to 3b measured at 10^−5 M in water are illustrated in FIG. 2, and corresponding data are shown in Table 1 below. […] When the water solubility of the dye increases, the probability of being present as a single molecule increases, and thus the color developability of each dye molecule is increased, resulting in increased color intensity.
In addition, an absorption peak form having two absorption maxima appeared. This is because a single molecule and aggregated molecules have different absorption maxima. Generally, as the concentration becomes lower, the probability of being present as a single molecule increases, and as the concentration increases, the tendency to aggregate becomes stronger, and thus one peak appears at each maximum, but it was confirmed from this experiment that since the two cases were present at a measurement concentration of 10 μM, absorption peaks appeared separately.

[3] = at first (or only) absorption maximum
[4] = first (or only) absorption maximum

In the case of `O=C1c2ccc3c4c(S(=O)(=O)O)cc5c6c(ccc(c7c(S(=O)(=O)O)cc(c2c37)C(=O)N1c1ccc(Cl)cc1)c64)C(=O)N(c1ccc(Cl)cc1)C5=O` [Dye 1b, N,N′-bis(4-chlorophenyl)-1,7-(disulfuric acid)perylene-3,4,9,10-tetra carboxydiimide], the “relative absorbance after final light irradiation” value [1] is reported as ≥ 0.95, the “λmax (nm) (after 1200 min)” value ([1]; first (or only) maximum) is reported as 508 nm and the “λmax (nm) (after 1200 min)” value ([1]; second maximum) is reported as 540 nm. The “λmax (nm)” value ([1]; first (or only) maximum) was 508 nm, the “λmax (nm)” value ([1]; second maximum) was 541 nm and the εmax [2, 3] was 38100 L/mol/cm. The εmax ([2]; at second absorption maximum) was 27300 L/mol/cm, the “λmax (nm) (after 1,200 min)” value [2, 4] was 508 nm and the “λmax (nm) (after 1,200 min)” value ([2]; second absorption maximum) was 541 nm.
With `O=C1c2ccc3c4c(S(=O)(=O)O)cc5c6c(ccc(c7c(S(=O)(=O)O)cc(c2c37)C(=O)N1c1ccc(Br)cc1)c64)C(=O)N(c1ccc(Br)cc1)C5=O` [Dye 2b, N,N′-bis(4-boromophenyl)-1,7-(disulfuric acid)perylene-3,4,9,10-tetracarboxydiimide] the “relative absorbance after final light irradiation” value [1] was ≥ 0.95, the “λmax (nm) (after 1200 min)” value ([1]; first (or only) maximum) was 510 nm and the “λmax (nm) (after 1200 min)” value ([1]; second maximum) was 540 nm. The “λmax (nm)” value ([1]; first (or only) maximum) was 512 nm, the “λmax (nm)” value ([1]; second maximum) was 540 nm and the εmax [2, 3] was 25700 L/mol/cm. The εmax ([2]; at second absorption maximum) was 25000 L/mol/cm, the “λmax (nm) (after 1,200 min)” value [2, 4] was 512 nm and the “λmax (nm) (after 1,200 min)” value ([2]; second absorption maximum) was 540 nm.
For `O=C1c2ccc3c4c(S(=O)(=O)O)cc5c6c(ccc(c7c(S(=O)(=O)O)cc(c2c37)C(=O)N1c1ccc(S(=O)(=O)O)cc1)c64)C(=O)N(c1ccc(S(=O)(=O)O)cc1)C5=O` [Dye 3b, N,N′-bis[4-(sulfuric acid)phenyl]-1,7-(disulfuric acid)perylene-3,4,9,10-tetra carboxydiimide], the “λmax (nm) (after 1200 min)” value ([1]; first (or only) maximum) was 510 nm, the “λmax (nm) (after 1200 min)” value ([1]; second maximum) was 534 nm and the “λmax (nm)” value ([1]; first (or only) maximum) was 512 nm. For the same molecule, the “λmax (nm)” value ([1]; second maximum) was 536 nm, the εmax [2, 3] was 27600 L/mol/cm and the εmax ([2]; at second absorption maximum) was 29100 L/mol/cm. For the same molecule, the “λmax (nm) (after 1,200 min)” value [2, 4] was 512 nm and the “λmax (nm) (after 1,200 min)” value ([2]; second absorption maximum) was 536 nm.
